From PubChem BioAssay AID488908 (National Center for Advancing Translational Sciences (NCATS), 2010)
Inconclusive results, whose numbers are uncertain, are shown with a selection of clear calls. Potencies beside an inconclusive call are fits to weak or partial responses and may not hold up. The source made the active and inactive calls. Calls come from the whole dose curve; as a rule, active = well fitted inhibition curve with a large enough effect; inconclusive = small, poorly fitted or top-dose-only effect; inactive = flat fitted curve, though single readings scatter.

experiment: Secondary Assay for lipid storage modulators: Cytotoxcity for probe SAR; details: Drosophila S3 cells viability, CellTiter-Glo luminescence, 24 h, with oleic acid added (1 µL, 400 µM); series mostly up to 46.1 µM; activity change, negative = cytotoxicity: at the top concentration
Procedure, shortened: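 CellTiter-Glo luminescence read after 24 h at 24 degrees C; embryonic Drosophila S3 cells (5,000/well) were co-treated with oleic acid (400 uM stock) and a range of compound concentrations.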

Q: For `S=C(Nc1cc(Cl)ccc1Oc1ccccc1)N1CCN(c2ncccn2)CC1`, which Potency is on record?
A: inconclusive: 25 µM [falling, partial curve]

Q: For `COc1ccc(CCNC(=O)c2cc3sccc3n2Cc2ccc(Cl)cc2)cc1OC`, which Potency is on record?
A: inconclusive: 15.8 µM [falling, partial curve]

Q: Which Potency does the source give for `COc1ccc(CCNC(=O)c2cc3sccc3n2Cc2ccc(F)cc2)cc1OC` here?
A: inconclusive: 8.88 µM [falling, partial curve]

Q: For `O=C(NCCc1ccc2c(c1)OCO2)c1cc2sccc2[nH]1`, which “activity change, negative = cytotoxicity” value is on record?
A: inactive: -4.89% [at 30.7 µM]

Q: With `CCOc1ccc(CCNC(=O)c2cc3sccc3n2Cc2cccc(C)c2)cc1OCC` as the molecule, how does the Potency read?
A: inconclusive: 17.7 µM [falling, partial curve]

Q: For `COc1ccc(Cl)cc1NC(=S)N1CCN(c2ccccn2)CC1`, which Potency is on record?
A: inconclusive: 12.5 µM [falling, partial curve, poor fit]

Q: For `CCc1sc(NC(=O)Cc2cccs2)nc1-c1ccccc1`, which “activity change, negative = cytotoxicity” value is on record?
A: inactive: -14.1%

Q: For `O=C(NC1CCCc2c1cnn2-c1ccc(F)cc1F)c1ccc(C(=O)c2ccccc2)cc1` (configuration not stated), which Potency is on record?
A: active: 11.2 µM

Q: For `O=C(NC1CCCc2c1cnn2-c1ccc(F)cc1F)c1c(F)cccc1Cl` (configuration not stated), which Potency is on record?
A: inconclusive: 15.8 µM [falling, partial curve]

Q: For `CCOc1ccc(CCNC(=O)c2cc3sccc3n2Cc2ccc(Cl)c(F)c2)cc1OCC`, which Potency is on record?
A: inconclusive: 15.8 µM [falling, partial curve]

Q: Which Potency does the source give for `O=C(Cc1ccccc1)NC1CCCc2c1cnn2-c1ccc(F)cc1F` (configuration not stated) here?
A: inconclusive: 15.8 µM [falling, partial curve, poor fit]

Q: Which “activity change, negative = cytotoxicity” value does the source give for `COc1nc(-c2ccc3c(c2)OCO3)n(-c2ccc(NC(=O)CSc3ccccc3)cc2)n1` here?
A: inactive: -7.25%

Q: Which Potency does the source give for `O=C(NC1CCCc2c1cnn2-c1ccc(F)cc1F)c1cccc(=O)[nH]1` (configuration not stated) here?
A: active: 2.81 µM

Q: With `O=C(NC1CCCc2c1cnn2-c1ccc(F)cc1F)C1CC1` (configuration not stated) as the molecule, how does the Potency read?
A: inconclusive: 14.1 µM [falling, partial curve]

Q: With `O=C(NC1CCCc2c1cnn2-c1ccc(F)cc1F)c1ccccc1` (configuration not stated) as the molecule, how does the Potency read?
A: active: 5.6 µM

Q: Which Potency does the source give for `O=C(NC1CCCc2c1cnn2-c1ccc(F)cc1F)c1ccncc1` (configuration not stated) here?
A: active: 1.41 µM

Q: Which Potency does the source give for `COc1ccc(OC)c(NC(=S)N2CCN(c3ccc(Cl)cc3)CC2)c1` here?
A: inconclusive: 19.9 µM [falling, partial curve]

Q: With `O=C(N[C@H]1CCCc2c1cnn2-c1ccc(F)cc1F)c1ccccn1` as the molecule, how does the Potency read?
A: inconclusive: 17.7 µM [falling, partial curve]

Q: For `CCOc1ccc(CCNC(=O)c2ccc3[nH]ccc3c2)cc1OCC`, which Potency is on record?
A: inconclusive: 21.2 µM [falling, full curve]

Q: For `O=C(CSc1nnc(NCc2ccccc2)s1)Nc1nc(-c2cccc(Br)c2)cs1`, which “activity change, negative = cytotoxicity” value is on record?
A: inactive: -15.8%

Q: For `O=C(NC1CCCc2c1cnn2-c1ccc(F)cc1F)c1ccsc1` (configuration not stated), which Potency is on record?
A: active: 3.97 µM

Q: With `O=C(NC1CCCc2c1cnn2-c1ccc(F)cc1F)c1cccc(F)c1F` (configuration not stated) as the molecule, how does the Potency read?
A: active: 14.1 µM
